Results on 60 compounds are retold here after PubChem BioAssay AID2685 (National Center for Advancing Translational Sciences (NCATS), 2010).

This assay can be described thus: qHTS Assay for Lipid Storage Modulators in Drosophila S3 Cells.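 On cell number change: cells counted by Cell Tracker Red CMTPX staining in the red channel.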 The conditions noted are these: BODIPY lipid droplet fluorescence, 18-24 h; for cell number change: measured here: cell count max response, cells fed with added oleic acid. The procedure, abridged: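 Laser-scanning cytometry quantifies lipid droplet accumulation (500–530 nm total intensity; droplet/cell object ratio) in oleic acid-fed (400 uM added) Drosophila S3 cells treated with a concentration series. 20 uM Triacsin C defined 100% inhibition.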
(In general: In qHTS, concentration-response curves come from the screen itself.)

Where [1] appears, read: measured here: cell number channel AC50, cells fed with added oleic acid.
[2] abbreviates: measured here: lipid fluorescence (Fed channel) AC50, cells fed with added oleic acid.

Each structure is given as a SMILES string. The list shows a part of the results. Further columns of the screen follow, without active or inactive calls. Compounds called inactive in the main read-out are mostly missing here. Potencies come from curve fits of mixed quality, noted in brackets.

A word on the AC50: it is the concentration at which the activity in the assay is half-maximal. In the case of `CCCn1c(=N)n(CC(=O)C(C)(C)C)c2ccccc21`, the cell number change is -37.1%. In addition, under setting [1], the AC50 was 16.4 µM [falling, single point]. Also, the AC50 under setting [2] is 29.1 µM [falling, single point].

Take `O=C(CC(=O)c1ccccc1)Nc1cc([N+](=O)[O-])ccc1Cl`: the cell number change is 13.9%. For the same compound, the AC50 under setting [2] was 23.1 µM [falling, single point].

With `Clc1cc(Br)ccc1NCc1cccnc1`, the cell number change was -14.9%.

`C=CCn1c(SCn2nnc3ccccc3c2=O)nnc1-c1ccc(F)cc1`: the cell number change amounted to 5.19%. For the same compound, the AC50 under setting [2] is 23.1 µM [rising, single point].

Take `CCn1nc(C)cc1C(=O)N1CCCC(C(=O)c2ccc(OC)cc2C)C1` (configuration not stated): the cell number change was -6.76%. The AC50 under setting [2] is 6.51 µM [rising, partial curve].

In the case of `CCc1nn(C(CC)C(=O)NCCCN2CC(C)CC(C)C2)c(=O)c2cc3oc(C)cc3n12` (configuration not stated), the cell number change was 37.3%. Besides, under setting [1], the AC50 is 32.6 µM [rising, single point]. Besides, the AC50 under setting [2] is 29.1 µM [rising, single point].

Consider `COC(=O)c1ccccc1NC(=O)Cn1cnc([N+](=O)[O-])c1`, for which the cell number change is 15.1%. Also, under setting [2], the AC50 is 29.1 µM [rising, single point].

Take `C=CC1C(OC2OC(CO)C(O)C(O)C2O)OC=C(C(=O)OC)C1CC1CC(=O)CC(CC(=O)CCc2ccc(O)cc2)O1` (configuration not stated): the cell number change is -17%. For the same compound, under setting [2], the AC50 is 29.1 µM [falling, single point].

In the case of `Cc1cccc(N(C(=O)CCC(=O)Nc2cc(C)on2)C(C(=O)NC2CCCC2)c2ccc(C)o2)c1` (configuration not stated), the cell number change is 12.6%. Further, under setting [1], the half-maximal activity concentration (AC50) was 5.8 µM [rising, partial curve, poor fit].

For the compound `O=C(Nc1cc(S(=O)(=O)N2CCCC2)ccc1OCC(F)(F)F)c1ccccc1F`, the cell number change is -2.3%. Moreover, the AC50 under setting [2] was 0.103 µM [falling, full curve].

Take `N=C1/C(=C/c2cccn2CCOc2ccccc2)C(=O)N=C2SC=C(c3ccccc3)N12`: the cell number change was 6.01%. For the same compound, the half-maximal activity concentration (AC50) under setting [2] was 2.91 µM [rising, partial curve].

For `CCSc1nnc(NC(=O)CCNS(=O)(=O)c2cc(Br)cnc2N)s1`, the AC50 under setting [2] is 1.3 µM [falling, full curve].

Consider `Cc1occc1C(=O)NNC(=S)NCc1ccc(Cl)cc1`, for which the cell number change was -14.9%. In addition, under setting [1], the AC50 was 0.461 µM [falling, partial curve, poor fit]. Also, under setting [2], the AC50 is 0.461 µM [falling, full curve, poor fit].

On to `CCn1cc(C(=O)NCCCOC)c(=O)c2cc(S(=O)(=O)N3CCCC3)ccc21`, for which the cell number change is -32.9%. Also, under setting [1], the half-maximal activity concentration (AC50) was 32.6 µM [falling, single point].

Regarding `CCCCCN(C(=O)NC(=O)NCCCC)S(C)(=O)=O`, the cell number change stood at 14.4%. Further, the AC50 under setting [2] is 6.51 µM [falling, single point].

Take `c1csc(-c2cnc3ccccc3n2)c1`: the cell number change turned out to be 0.917%.

In the case of `O=C(CSc1ncccn1)N1CCN(C(=O)CSc2ncccn2)CC1`, the cell number change is -27.8%. For the same compound, under setting [2], the AC50 was 18.4 µM [falling, single point].

Regarding `COC(=O)c1ccc(C(=O)Nc2nc3cc(N)c(C)cc3s2)cc1`, the cell number change is -8.11%. Besides, the AC50 under setting [2] was 29.1 µM [falling, single point].

On to `Cc1nc2ccc(N3C(=O)CCC3=O)cc2[nH]1`, for which the AC50 under setting [1] was 0.58 µM [rising, single point].

`N#CC1=C(S)N=C(N)C(c2nc(-c3ccccc3)cs2)C12CCCC2` (configuration not stated): the cell number change turned out to be 11.6%. For the same compound, the AC50 under setting [2] was 6.51 µM [falling, single point].

As to `CC(C)C(C(=O)NCC1CCCO1)N(Cc1ccco1)C(=O)CNS(=O)(=O)c1ccccc1` (configuration not stated), the cell number change came to 55.7%. Under setting [1], the AC50 was 18.4 µM [rising, single point].

Regarding `COc1ccc(NC(=O)CSCC(=O)N2CCN(C(=O)c3ccco3)CC2)cc1`, the cell number change was 23.5%. For the same compound, the AC50 under setting [2] is 3.66 µM [rising, full curve, poor fit].

`C=CCn1c(-c2ccc(OC)cc2)nc2nc3ccccc3nc21`: the cell number change stood at 20.1%. The AC50 under setting [1] is 0.206 µM [rising, full curve, poor fit]. Under setting [2], the AC50 is 0.92 µM [rising, partial curve].

As for `O=C(Cn1cc2c(n1)CCCC2)NCC1CCCO1` (configuration not stated), the cell number change was -79.4%. For the same compound, under setting [1], the AC50 is 1.46 µM [falling, full curve]. In addition, the AC50 under setting [2] was 0.411 µM [falling, full curve, poor fit].

Consider `CC1(C)NC(=O)N(CC(=O)OCC(=O)Nc2cc(S(=O)(=O)N3CCCCC3)ccc2Cl)C1=O`, for which the cell number change is -31.9%. Further, the half-maximal activity concentration (AC50) under setting [1] was 18.4 µM [falling, single point]. Under setting [2], the AC50 was 0.092 µM [rising, full curve].

As for `Cc1ccc(NC(=O)CSc2nnc(C)n2CC2CCCO2)cc1` (configuration not stated), the cell number change is 126%. Further, under setting [1], the AC50 is 0.58 µM [rising, single point].

For `COc1ccccc1C(=O)N/C(=C\c1ccc(Br)cc1)C(=O)NCCO`, the AC50 under setting [2] was 0.58 µM [rising, single point].

`Cc1cc(C(=O)CN2C(=O)CN(C)C2=O)c(C)n1-c1cccc(S(=O)(=O)N2CCOCC2)c1`: the cell number change was 71.3%. In addition, under setting [1], the AC50 was 18.4 µM [rising, single point].

Regarding `Cc1cccc(N2CCN(C(c3ccc(N(C)C)cc3)c3nnnn3C(C)(C)C)CC2)c1C` (configuration not stated), the cell number change turned out to be 33.4%. Moreover, the AC50 under setting [1] is 29.1 µM [rising, single point]. For the same compound, under setting [2], the AC50 was 3.66 µM [rising, partial curve].

As for `COc1ccc(C(=O)CSc2nnc(CNC(=O)c3ccccc3)o2)cc1`, the cell number change amounted to 9.76%. In addition, the AC50 under setting [2] was 23.1 µM [falling, single point].

With `CCOc1ccc(/C=N/NC(=O)c2ccc(Cn3cc([N+](=O)[O-])cn3)o2)cc1`, the AC50 reads like this: under setting [1], 0.116 µM [rising, full curve, poor fit]; under setting [2], 3.26 µM [rising, full curve].

In the case of `COc1ccc(N2CCN(C(CNC(=O)C(=O)NCCCn3ccnc3)c3ccco3)CC2)cc1` (configuration not stated), the cell number change came to 26.1%. In addition, the AC50 under setting [2] was 29.1 µM [rising, single point].

For the compound `O=C(NC1CCN(C(=O)Nc2ccccc2Cl)CC1)c1cccc(F)c1`, the cell number change is -9.52%. Besides, the AC50 under setting [2] is 18.4 µM [falling, single point].

As to `COc1ccc(NC(=O)CCCCCn2nnc3ccccc3c2=O)cc1`, the cell number change was 40.4%. Besides, the AC50 under setting [1] was 1.84 µM [rising, partial curve].

With `Cc1ccccc1-n1nnnc1SCC(=O)NNC(=O)c1ccc(NC(=O)CC#N)cc1`, the cell number change amounted to 8.67%. The AC50 under setting [2] was 1.03 µM [rising, full curve].

On to `CC[n+]1c(/C=C/Nc2ccccc2)oc2ccccc21`, for which the cell number change is -17.7%. For the same compound, under setting [2], the AC50 was 3.26 µM [falling, partial curve].

`CN(C)c1ccc(CN2CCCCCC2)cc1`: the cell number change was -23.2%.

Turning to `COc1cc(NC(=O)c2cccc(NC3=NC4CS(=O)(=O)CC4S3)c2)cc(OC)c1OC` (configuration not stated), the cell number change is 29.7%.

Regarding `Cc1cccc(NC(=O)NCc2ccc3c(c2)cc(C)n3C)c1`, the cell number change is -16.7%. Further, under setting [2], the AC50 was 29.1 µM [falling, single point].

With `Oc1ccc(C[C@H]2CNCCN2CCc2cccc(F)c2)cc1`, the cell number change is -16.8%. Further, under setting [2], the AC50 is 18.4 µM [rising, single point].

On to `CC(/C=C\c1ccccc1)=C/C(=O)O`, for which the AC50 under setting [2] was 32.6 µM [rising, single point].

`CCc1cccc(C)c1NC(=S)NCCc1c(C)[nH]c2ccc(C)cc12`: the cell number change is -15.3%.

Consider `Cc1ccc(S(=O)(=O)CCC(=O)Nc2ccccc2C)cc1`, for which the cell number change was -6.31%. Moreover, the AC50 under setting [2] is 29.1 µM [falling, single point].

Turning to `CC(=O)N1c2ccc(S(=O)(=O)N(C)CC(=O)NCc3ccc(C)cc3)cc2CC1C` (configuration not stated), the cell number change was determined as 38.9%. In addition, the AC50 under setting [1] was 6.51 µM [rising, partial curve, poor fit]. Further, under setting [2], the AC50 was 25.9 µM [rising, single point].

Take `COc1ccc(CC(=O)Nc2c3c(nn2-c2cccc(C)c2C)CS(=O)C3)cc1OC` (configuration not stated): the cell number change came to 11.7%. For the same compound, the AC50 under setting [2] is 0.0103 µM [falling, full curve, poor fit].

For the compound `CCc1cccc(NC(=O)CN(c2ccc(OC)cc2)S(=O)(=O)c2c(C)n[nH]c2C)c1`, the cell number change was -2.12%. Moreover, under setting [2], the AC50 is 20.6 µM [rising, single point].

In the case of `Cc1cccc(CCNC(=O)C2CCN(S(=O)(=O)c3c(C)noc3C)CC2)c1`, the AC50 under setting [1] was 2.31 µM [rising, single point].

For the compound `OCCNCc1cccc2ccccc12`, the cell number change is 118%.

Regarding `CN(C(=O)COC(=O)c1n[nH]c(=O)c2ccccc12)c1ccccc1`, the cell number change was -10.9%. Further, the AC50 under setting [1] was 0.146 µM [falling, full curve, poor fit]. The AC50 under setting [2] is 0.164 µM [falling, full curve, poor fit].

In the case of `CC(C)c1ccccc1NC(=O)c1ccco1`, the cell number change was -0.195%.

For `CCCN1CCN(CCCNC(=O)c2ccc3nc(N4CCCCC4)sc3c2)CC1`, the cell number change came to 23.7%. Also, the AC50 under setting [1] was 0.0058 µM [rising, full curve, poor fit]. Also, under setting [2], the AC50 was 6.51 µM [rising, single point].

As for `FC(F)(F)c1cccc(-c2nn[nH]n2)c1`, the cell number change came to 29.4%. Further, under setting [1], the AC50 is 0.82 µM [rising, full curve, poor fit].

`COc1ccc(C(=O)OCC(=O)NC(=O)NCc2ccccc2)cc1[N+](=O)[O-]`: the cell number change was -7.29%. The AC50 under setting [2] was 6.51 µM [falling, single point].

Regarding `COc1ccc2nc(SC)c(C#N)cc2c1`, the cell number change is -25%. For the same compound, under setting [2], the AC50 was 29.1 µM [falling, single point].

Consider `Cc1cccc(Cc2cnc(NC(=O)c3ccc(C)o3)s2)c1`, for which the cell number change was 93.5%. Also, under setting [1], the AC50 was 23.1 µM [rising, single point]. In addition, the AC50 under setting [2] was 20.6 µM [rising, partial curve].

As for `COCCn1c(SCC(=O)NCCc2ccccc2)nnc1-c1ccco1`, the cell number change came out at 1.28%. The AC50 under setting [2] was 0.103 µM [rising, full curve, poor fit].

As for `COc1ccc(CCNC(=O)CN2c3cccc4cccc(c34)S2(=O)=O)cc1OC`, the cell number change worked out at 1.8%.

Consider `Nc1c(C(=O)O)cnn1-c1ccccc1`, for which the cell number change stood at 22.5%. Also, the AC50 under setting [2] was 29.1 µM [rising, single point].

For the compound `COc1ccc(-c2nnc(SCC(=O)NCc3ccco3)o2)cc1`, the cell number change was found to be 20.2%. Also, under setting [2], the AC50 was 1.64 µM [rising, partial curve, poor fit].

`CCN1C(=O)C(CC(=O)NC2CCCCC2)N(CC)C1=O` (configuration not stated): the AC50 under setting [2] was 6.51 µM [falling, full curve].
